# Results from PubChem BioAssay AID1259415 (National Center for Advancing Translational Sciences (NCATS), 2018).
# Hit rate of the full screen: of about 410,000 compounds, about 18,000 (4.4%) were called active. Inconclusive results, whose numbers are uncertain, are shown with a selection of clear calls. No stated cut-off is given here; in the data, active means activity change below about -60%; inconclusive means no clear call, values can overlap the other calls; inactive means above about -39%.
# Assay: qHTS Assay for inhibitors of the human cytomegalovirus (HCMV)
# Conditions: HFF cells, HCMV-luciferase reporter, 72 h; at 57.5 µM; stronger effect = lower value
# Outline: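 Two compound doses tested in HFFs infected with HCMV-luciferase, MOI 1 PFU/cell, 72 h at 37C. Lysate luminescence read with OneGlo; data normalized against buffer-only and 10uM Salinomycin inhibitor controls.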
# On the % scale 0 is the no-effect control and ±100 the full control effect.
row,Compound,"activity change, negative = inhibition"
1,O=S(=O)(c1ccc2c(c1)CCCN2)N1CCCC2CCCCC21 (stereo unspecified),inconclusive: -48.4%
2,CCc1ccc(NC(=S)NC(=O)c2c(-c3ccccc3Cl)noc2C)cc1,inactive: -10.2%
3,CC1(C(=O)Nc2cccc(Oc3ccccc3)c2)CCN1Cc1cc2ccccc2o1 (stereo unspecified),inactive: 10.4%
4,Cc1ccc(C(C(=O)NC2CCCCC2)N2CCOCC2)cc1 (stereo unspecified),inconclusive: -40.1%
5,c1cnc2ccc(C(c3nnnn3C3CCCCC3)N3CCCCC3)cc2c1 (stereo unspecified),inconclusive: -53.9%
6,N#C/C(=N\Nc1cccc(C(F)(F)F)c1)C(=O)c1csc(-c2cccnc2)n1,inconclusive: -51.7%
7,Cc1cc(C)n(CCNC(=O)C2CCC(=O)N(Cc3ccc(Cl)cc3)C2)n1 (stereo unspecified),inconclusive: -42.3%
8,Cc1cc2ncn(/N=C/c3ccc(-c4ccccc4)o3)c2cc1C,inactive: 11.9%
9,O=C(O)c1ccc(N/N=C/c2ccc(OC(=O)c3ccccc3Cl)cc2)cc1,active: -67.6%
10,O=C(/C=C/c1ccco1)Nc1ccccc1N1CCCCC1,inconclusive: -51.4%
11,Cc1ccc(NC(=O)CSCC(=O)NCCc2ccccc2)c(C)c1,inactive: -8.62%
12,CCc1nc2c(OCc3ccc(Cl)cc3)cccn2c1N(C)C(=O)c1ccco1,active: -76.7%
13,CNc1ccc(Cl)cc1S(=O)(=O)c1ccccc1[N+](=O)[O-],inconclusive: -46.2%
14,O=C(COC(=O)c1c(Cl)ccc(Cl)c1Cl)NC(=O)NCc1ccccc1,inconclusive: -42.3%
15,COc1ccc([N+](=O)[O-])cc1NC(=O)Cc1ccccc1Cl,inconclusive: -50.7%
16,CCCCNC(=O)C1(C)CCN1C(=O)c1cc2ccccc2s1 (stereo unspecified),inconclusive: -57.8%
17,Cc1ccc(-c2nc3ccccc3[nH]2)cc1NC(=O)COc1ccccc1[N+](=O)[O-],active: -87.6%
18,CS(=O)(=O)c1ccc(C(=O)OCC(=O)N2CCOCC2)cc1[N+](=O)[O-],active: -79.5%
19,COc1ccc(C2C=C(c3ccc(F)cc3)Nc3nc(-c4ccc(Cl)cc4)nn32)cc1 (stereo unspecified),active: -101%
20,COc1cc2nc(CN3CCN(S(=O)(=O)c4ccc(C)c(C)c4)CC3)[nH]c(=O)c2cc1OC,inactive: -22%
21,c1ccc(-c2cc3c(N4CCOCC4)ncnc3s2)cc1,inactive: -17.7%
22,COc1ccc(NS(=O)(=O)c2cccc(N/C(=N\S(=O)(=O)c3ccccc3)c3ccc(F)cc3)c2)cc1,inconclusive: -40.2%

row,Compound,"activity change, negative = inhibition"
1,CCOC(=O)CC(NC(=O)C1c2ccccc2Oc2ccccc21)c1ccc(C)cc1 (stereo unspecified),inconclusive: -50.3%
2,CC1CCCCN1S(=O)(=O)c1ccc([N+](=O)[O-])cc1 (stereo unspecified),inconclusive: -49.7%
3,CC1CCc2c(nc3sc4c(c3c2N)CCCC4)C1 (stereo unspecified),inconclusive: -59.8%
4,CCOC(=O)C1=C(CN2CCN(c3ccc(Cl)cc3)CC2)NC(=O)NC1c1ccc(OC)cc1 (stereo unspecified),inconclusive: -47%
5,O=C(Cn1ncc2c3ccccc3n(Cc3ccccc3)c2c1=O)NCc1cccs1,inconclusive: -43.9%
6,CC1C(=O)Nc2ccc(S(=O)(=O)N3CCCCCC3)cc21 (stereo unspecified),inconclusive: -52.4%
7,Cc1ccc(SC[C@H](c2ccccc2)N2CCN(CC(C)C)CCC2=O)cc1,inactive: 19.9%
8,S=C(Nc1ccc2cn[nH]c2c1)Nc1ccc(Cl)cc1Cl,inconclusive: -43.7%
9,Cc1ccc(NC(=O)CC2Oc3ccc(C)cc3NC2=O)c(C)c1 (stereo unspecified),inconclusive: -55.5%
10,CCC/C=N/NC(=O)C1COc2ccccc2O1 (stereo unspecified),inconclusive: -46.9%
11,O=C(CCn1c(=O)c2sccc2n(Cc2ccc(F)cc2)c1=O)NCc1ccc2c(c1)OCO2,inactive: 14.2%
12,CC(=O)C(Cc1ccccc1)NC(=O)CCl (stereo unspecified),inconclusive: -48.6%
13,Cc1c(C(=O)OCC(=O)Nc2ccc(C(N)=O)cc2)cccc1[N+](=O)[O-],inconclusive: -40.1%
14,Cc1ccc(OCCC(=O)OCC(=O)N2c3ccccc3NC(=O)C2(C)C)cc1,inconclusive: -42.1%
15,CCCc1ccc(C2C3=C(CC(C)(C)CC3=O)NC3=C2C(=O)c2ccccc23)cc1 (stereo unspecified),inconclusive: -55.1%
16,Cc1ccc(C)c(N2CC(C(=O)Nc3cc(C)on3)CC2=O)c1 (stereo unspecified),inactive: -33.9%
17,COc1cc(C(=O)Nc2ccc(NC(C)=O)cc2)ccc1OCc1ccccc1,inconclusive: -56%
18,COc1cccc(CNC(=O)C2CCN(S(=O)(=O)c3ccc4c(c3)CC(C)N4C(C)=O)CC2)c1 (stereo unspecified),inactive: 17%
19,CC(NCc1cccs1)c1ccccc1 (stereo unspecified),inconclusive: -54.8%
20,CC(C)C[C@H](NC(=O)c1[nH]cnc1C(=O)N[C@H](C)c1ccccc1)C(=O)OC(C)(C)C,inconclusive: -45.6%
21,CCCC(=O)Nc1cc2c(cc1C(=O)c1ccccc1)OCCO2,inconclusive: -43.9%
22,Cc1ccc(C(=O)NC(=C(Cl)Cl)S(=O)(=O)c2ccc(C)cc2)cc1,active: -60.1%

row,Compound,"activity change, negative = inhibition"
1,Cc1[nH]c2ccccc2c1N=Nc1cccc(C(=O)O)c1,inactive: 61%
2,CC12CNCC(C)(CN(C(c3ccccc3)c3ccccc3)C1)C2,inconclusive: -41.9%
3,Cn1c(SCC(=O)N2c3ccccc3Sc3ccccc32)nc2ccccc21,inconclusive: -47.7%
4,COc1ccccc1NC(=O)c1cc2cc(Br)ccc2cc1O,inactive: -28.9%
5,Cc1nn(C(C)(C)C)c(NC(=O)c2ccccc2)c1C#N,inconclusive: -42.4%
6,Cc1ccc(NC(=S)N=Nc2c(O)n(C)c3ccc(S(=O)(=O)N4CCOCC4)cc23)cc1C,inconclusive: -45.5%
7,O=C1c2ccccc2C(=O)N1CCCCN(C(=O)c1cc([N+](=O)[O-])cc([N+](=O)[O-])c1)c1ccc(Cl)cc1,inconclusive: -42.3%
8,Cc1ccc(C(=O)NC(C)c2ccc(-n3ccnc3)cc2)o1 (stereo unspecified),inactive: -2.64%
9,Fc1ccccc1-c1nnc2n1N=C(c1ccc(OC(F)F)c(OCC3CC3)c1)CS2,inactive: 23.7%
10,FC(F)(F)c1cc(Oc2ccccc2Cl)nc(-c2ccccn2)n1,inconclusive: -47.7%
11,CCOc1ccccc1NC(=O)C1CCCN(S(=O)(=O)c2ccccc2)C1 (stereo unspecified),active: -62%
12,CCN(CC(=O)Nc1ccccc1OC)C(=O)CC1CC2CCC1C2 (stereo unspecified),inconclusive: -54.3%
13,Cc1ccc(-n2cc(CN3CCNC(=O)CC3)c(-c3cccc(C)c3)n2)cc1,inactive: -33.4%
14,COc1ccc(NC(=O)Cn2c(=O)oc3ccccc32)cc1,inconclusive: -43.7%
15,CN(c1ccccc1)S(=O)(=O)c1ccc(Cl)c(C(=O)NC2=NCCS2)c1,active: -101%
16,Cc1ccc(NC(=O)Nc2nnc(-c3ccncc3)s2)cc1,active: -99.3%
17,COc1ccccc1CNC(=O)c1cc(-c2cc(F)ccc2OC(C)C)n[nH]1,inactive: -29.5%
18,O=c1[nH]c(CN2CC=C(c3ccccc3)CC2)nc2scc(-c3ccccc3)c12,inconclusive: -47.2%
19,Cc1ccc(/C=N/NC(=O)CSc2nc3ccccc3c(=O)n2-c2ccccc2C)s1,active: -68.9%
20,CCOc1ccccc1NC(=O)c1ccc(NC(=O)c2ccco2)cc1,inconclusive: -44.2%
21,COC(C(=O)N/N=C(\C)c1ccc(O)cc1)c1ccccc1 (stereo unspecified),inactive: -34.1%
22,COc1cc(/C=C2/NC(=O)N(c3cccc(Cl)c3)C2=O)ccc1O,inconclusive: -58%

# Of the compounds above, two have a tert-butyl group:
row,Compound,"activity change, negative = inhibition"
20,CC(C)C[C@H](NC(=O)c1[nH]cnc1C(=O)N[C@H](C)c1ccccc1)C(=O)OC(C)(C)C,inconclusive: -45.6%
5,Cc1nn(C(C)(C)C)c(NC(=O)c2ccccc2)c1C#N,inconclusive: -42.4%

# Going on with the list.

row,Compound,"activity change, negative = inhibition"
1,CCOC(=O)[C@]12CCCC=C1N(CCC1=CCCCC1)C(=O)[C@H](CC(=O)NCc1ccc(C)o1)C2,inconclusive: -45.8%
2,CNC(=O)CN(c1ccc(C23CC4CC(CC(C4)C2)C3)cc1)S(C)(=O)=O,active: -60.4%
3,Cc1ccc(SCc2cc(=O)[nH]c(N3CCN(Cc4ccccc4)CC3)n2)cc1,inactive: -8.08%
4,COc1ccc(OC)c(-c2cc(C(=O)Nc3ccc(C)c(C)c3)no2)c1,inactive: 26%
5,CCOC(=O)c1c(C)[nH]c(C(=O)OCC(=O)NC2(C#N)CCCCC2)c1C,inconclusive: -43.3%
6,CN(C(=O)CSc1nc2ccccc2n1CC(=O)NCc1ccc(F)cc1)c1ccc(F)cc1,inconclusive: -59.9%
7,O=C(NNC(=O)C12CC3CC(CC(C3)C1)C2)c1cnccn1,inconclusive: -41.5%
8,O=c1n(CCCN2CCN(c3cccc(Cl)c3)CC2)nc2ccccn12,inconclusive: -40.9%
9,CCN(C(=O)COC(=O)c1cc(S(=O)(=O)N2CCOCC2)c(Cl)cc1Cl)C1CCS(=O)(=O)C1 (stereo unspecified),inconclusive: -54.3%
10,Cc1c(C(=O)NCc2ccc(Cl)cc2)sc2nc3n(c(=O)c12)CCCC3,inconclusive: -43.6%
11,COc1ncnc(OC)c1S(=O)(=O)Nc1ccc(C(F)(F)F)cc1,inconclusive: -47.2%
12,Cc1ccc(NC(=O)CSc2nnc(Cc3cccn3C)n2-c2ccc(F)cc2)c(C)c1,inactive: -32.4%
13,N#Cc1nc(-c2ccc(F)cc2)oc1NCCN1CCOCC1,inactive: 21.2%
14,CC(=O)Nc1nc(C)c(C(C)(C)C)s1,inconclusive: -42.6%
15,O=C(NCc1ccccc1)C1=C[C@H](c2csc3ccccc23)C[C@H](OCc2ccc(CO)cc2)O1,active: -61%
16,O=C1ON=C(c2ccccc2)/C1=C/c1cccnc1,inconclusive: -48.1%
17,CC(C)(C)N(Cc1ccccc1)C(=O)COC(=O)Cn1[nH]c(=O)c2ccccc2c1=O,inconclusive: -41.2%
18,COC(=O)C(/C=N/O)NC(=O)c1ccccc1 (stereo unspecified),inconclusive: -41.9%
19,COc1cc(N=Nc2ccc(Br)cc2)cc(C=O)c1O,inconclusive: -41.7%
20,O=C(Cc1cccs1)NCCSc1c(-c2ccc(Cl)cc2)[nH]c2ccccc12,inconclusive: -52.5%
